Values from PubChem BioAssay AID743454 (Peter MacCallum Cancer Centre, 2014).
In all, the deposit lists about 18,000 reagents; this is a part drawn at random. 450 of all reagents (2.5%) were called active. 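Single biological run; no consistent viability z cut-off exists, so the class columns, not z-scores, define the calls.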 Unmarked entries are inactive. Reagents against one gene are numbered here. Reagent sequences are not shown.

Aim: 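Knock-downs lowering viability or raising caspase 3/7 activity in vorinostat-treated resistant cells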 (primary screen)
System: human HCT116-VR colon cancer cells, selected for vorinostat resistance
Knock-down reagent: siRNA pool against human genes, 40 nM siRNA pool
Duration: vorinostat for 24 h, read-out about 72 h after transfection
Conditions: vorinostat at 2.5 µM final
Measured: 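Cell viability by CellTiter-Fluor and caspase 3/7 activity by luminescence, each scaled to mock wells per plate, duplicates averaged, then robust z-scored over all plates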
Direction: viability robust z-score: higher = more viable cells than screen typical; caspase robust z-score: higher = more caspase 3/7 activity than screen typical
Rule for the call: 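Hits are knock-downs in viability class RV1/RV2 or caspase class CA1/CA2, excluding ones that killed cells in the no-drug cell-count arm; hits then retested with single siRNAs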

gene	reagent	viability hit class	caspase hit class	viability robust z-score	caspase robust z-score
SULF1 (sulfatase 1)	1	no change	no change	0.6	-0.98
OR51Q1 (olfactory receptor family 51 subfamily Q member 1)	1	no change	no change	0.04	1.1
ATP5MC1 (ATP synthase membrane subunit c locus 1)	1	no change	no change	0.84	-0.2
LBP (lipopolysaccharide binding protein)	1	no change	no change	-1.52	1.54
AURKA (aurora kinase A)	1	no change	no change	-4.04	1.35
ALG5 (ALG5 dolichyl-phosphate beta-glucosyltransferase)	1	no change	no change	0.5	-0.09
FOXD1 (forkhead box D1)	1	no change	no change	-0.13	1.94
PABPC1L2B (poly(A) binding protein cytoplasmic 1 like 2B)	1	no change	no change	0.87	-0.18
ZFP37 (ZFP37 zinc finger protein)	1	no change	no change	0.21	0.3
RBM4 (RNA binding motif protein 4)	1	no change	no change	1.03	2.34
RPL22 (ribosomal protein L22)	1	no change	no change	-0.28	0.16
RBM34 (RNA binding motif protein 34)	1	no change	no change	-1.06	4.4
ZC3H15 (zinc finger CCCH-type containing 15)	1	no change	no change	0.48	0.54
SPOCD1 (SPOC domain containing 1)	1	no change	no change	-0.42	-0.18
TMEM25 (transmembrane protein 25)	1	no change	no change	0.53	0.76
COX19 (cytochrome c oxidase assembly factor COX19)	1	no change	no change	0.57	-0.88
PLEKHF2 (pleckstrin homology and FYVE domain containing 2)	1	no change	no change	0.84	0.3
PGBD1 (piggyBac transposable element derived 1)	1	no change	no change	-0.06	-0.01
YIPF5 (Yip1 domain family member 5)	1	no change	no change	0.98	-0.88
TMEM52 (transmembrane protein 52)	1	no change	no change	-0.08	-0.42
GRIA1 (glutamate ionotropic receptor AMPA type subunit 1)	1	no change	no change	0.26	0.15
LRRC8E (leucine rich repeat containing 8 VRAC subunit E)	1	no change	no change	0.36	-0.5
MAP3K7 (mitogen-activated protein kinase kinase kinase 7)	1	no change	no change	-0.6	3.5
CISH (cytokine inducible SH2 containing protein)	1	no change	no change	-0.57	1.83
KIF5B (kinesin family member 5B)	1	no change	no change	0.57	1.28

Continued; the last 4 above are carried over.
gene	reagent	viability hit class	caspase hit class	viability robust z-score	caspase robust z-score
LRRC8E (leucine rich repeat containing 8 VRAC subunit E)	1	no change	no change	0.36	-0.5
MAP3K7 (mitogen-activated protein kinase kinase kinase 7)	1	no change	no change	-0.6	3.5
CISH (cytokine inducible SH2 containing protein)	1	no change	no change	-0.57	1.83
KIF5B (kinesin family member 5B)	1	no change	no change	0.57	1.28
RHO (rhodopsin)	1	no change	no change	-0.29	0.24
SLC30A6	1	no change	no change	0.86	1.41
COLGALT1 (collagen beta(1-O)galactosyltransferase 1)	1	no change	no change	0.72	0.02
ALG13 (ALG13 UDP-N-acetylglucosaminyltransferase subunit)	1	no change	no change	0.58	-0.53
ALG13 (ALG13 UDP-N-acetylglucosaminyltransferase subunit)	2	no change	no change	-0.04	-0.16
HELQ (helicase, POLQ like)	1	no change	no change	1.48	-0.16
MARCHF1 (membrane associated ring-CH-type finger 1)	1	no change	no change	0.63	0.34
STK31 (serine/threonine kinase 31)	1	no change	no change	1.75	0.76
CRYAA (crystallin alpha A)	1	no change	no change	1.2	3.58
MOCS2 (molybdenum cofactor synthesis 2)	1	no change	no change	0.42	-0.74
USP25 (ubiquitin specific peptidase 25)	1	no change	no change	-0.71	0.48
MED19 (mediator complex subunit 19)	1	no change	no change	0.87	-0.44
EPS15 (epidermal growth factor receptor pathway substrate 15)	1	no change	no change	0.41	-1.1
YRDC (yrdC N6-threonylcarbamoyltransferase domain containing)	1	no change	no change	-0.83	2.45
KASH5 (KASH domain containing 5)	1	no change	no change	0.22	1.29
KRTAP6-1 (keratin associated protein 6-1)	1	no change	no change	-1.67	1.37
GNAZ (G protein subunit alpha z)	1	no change	no change	0.31	1.12
KDM1B (lysine demethylase 1B)	1	no change	no change	1.02	0.33
INPP4B (inositol polyphosphate-4-phosphatase type II B)	1	no change	no change	-1.19	2.4
L3MBTL3 (L3MBTL histone methyl-lysine binding protein 3)	1	no change	no change	0.56	-0.26
FYCO1 (FYVE and coiled-coil domain autophagy adaptor 1)	1	no change	no change	-1.05	0.32
PEMT (phosphatidylethanolamine N-methyltransferase)	1	no change	no change	-0.64	-0.5
CLSPN (claspin)	1	no change	no change	-0.8	-0.24
QRFP (pyroglutamylated RFamide peptide)	1	no change	no change	-0.37	1.48
COL10A1 (collagen type X alpha 1 chain)	1	no change	no change	-2.12	0.08
MCCD1 (mitochondrial coiled-coil domain 1)	1	no change	no change	0.36	-0.16
PGLYRP2 (peptidoglycan recognition protein 2)	1	no change	no change	0.36	0.18
WDR12 (WD repeat domain 12)	1	no change	no change	-0.89	5.09
CPNE9 (copine family member 9)	1	no change	no change	1.62	-0.86
STAC3 (SH3 and cysteine rich domain 3)	1	no change	no change	0.54	0.56
SULT6B1 (sulfotransferase family 6B member 1)	1	no change	no change	-0.2	0.42
SMR3A (submaxillary gland androgen regulated protein 3A)	1	no change	no change	-2.55	3.12
